Measurements as given in PMC10701612.
Results are given in words; binding and its absence hold for the method and conditions named. Binding seen in cells or lysates may run through a third protein. Some results given as binding are weak or reduced against the parent protein; the word gives no strength.

Sequences of proteins named here, by UniProt entry; tags and fusion partners are left off.
UniProt Q6PF93: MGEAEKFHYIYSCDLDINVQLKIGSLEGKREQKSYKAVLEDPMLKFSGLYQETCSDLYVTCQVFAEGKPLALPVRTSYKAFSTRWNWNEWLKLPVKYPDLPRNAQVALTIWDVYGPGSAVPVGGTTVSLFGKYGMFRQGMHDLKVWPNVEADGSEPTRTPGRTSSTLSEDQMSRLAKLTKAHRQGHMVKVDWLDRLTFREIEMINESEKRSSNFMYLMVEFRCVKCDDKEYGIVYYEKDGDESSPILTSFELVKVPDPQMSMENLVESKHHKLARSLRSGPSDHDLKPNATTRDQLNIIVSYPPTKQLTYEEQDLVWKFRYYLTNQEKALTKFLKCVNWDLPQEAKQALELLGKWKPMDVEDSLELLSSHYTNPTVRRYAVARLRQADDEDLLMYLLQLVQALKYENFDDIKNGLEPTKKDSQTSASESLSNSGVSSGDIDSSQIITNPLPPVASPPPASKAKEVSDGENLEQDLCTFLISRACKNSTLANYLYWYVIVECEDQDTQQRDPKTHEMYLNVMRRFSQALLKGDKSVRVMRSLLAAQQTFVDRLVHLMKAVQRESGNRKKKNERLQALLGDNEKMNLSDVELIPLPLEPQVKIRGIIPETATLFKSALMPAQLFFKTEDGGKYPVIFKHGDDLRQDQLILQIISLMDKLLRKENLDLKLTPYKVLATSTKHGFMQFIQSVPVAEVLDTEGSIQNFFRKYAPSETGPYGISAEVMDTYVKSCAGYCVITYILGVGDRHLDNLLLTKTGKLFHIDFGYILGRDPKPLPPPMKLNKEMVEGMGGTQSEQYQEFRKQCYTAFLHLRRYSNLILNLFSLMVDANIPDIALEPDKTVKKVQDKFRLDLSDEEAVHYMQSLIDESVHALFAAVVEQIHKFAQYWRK

T1: RUBICON (mouse (endogenous in BMDMs)) (UniProt Q80U62)
T1 sequence: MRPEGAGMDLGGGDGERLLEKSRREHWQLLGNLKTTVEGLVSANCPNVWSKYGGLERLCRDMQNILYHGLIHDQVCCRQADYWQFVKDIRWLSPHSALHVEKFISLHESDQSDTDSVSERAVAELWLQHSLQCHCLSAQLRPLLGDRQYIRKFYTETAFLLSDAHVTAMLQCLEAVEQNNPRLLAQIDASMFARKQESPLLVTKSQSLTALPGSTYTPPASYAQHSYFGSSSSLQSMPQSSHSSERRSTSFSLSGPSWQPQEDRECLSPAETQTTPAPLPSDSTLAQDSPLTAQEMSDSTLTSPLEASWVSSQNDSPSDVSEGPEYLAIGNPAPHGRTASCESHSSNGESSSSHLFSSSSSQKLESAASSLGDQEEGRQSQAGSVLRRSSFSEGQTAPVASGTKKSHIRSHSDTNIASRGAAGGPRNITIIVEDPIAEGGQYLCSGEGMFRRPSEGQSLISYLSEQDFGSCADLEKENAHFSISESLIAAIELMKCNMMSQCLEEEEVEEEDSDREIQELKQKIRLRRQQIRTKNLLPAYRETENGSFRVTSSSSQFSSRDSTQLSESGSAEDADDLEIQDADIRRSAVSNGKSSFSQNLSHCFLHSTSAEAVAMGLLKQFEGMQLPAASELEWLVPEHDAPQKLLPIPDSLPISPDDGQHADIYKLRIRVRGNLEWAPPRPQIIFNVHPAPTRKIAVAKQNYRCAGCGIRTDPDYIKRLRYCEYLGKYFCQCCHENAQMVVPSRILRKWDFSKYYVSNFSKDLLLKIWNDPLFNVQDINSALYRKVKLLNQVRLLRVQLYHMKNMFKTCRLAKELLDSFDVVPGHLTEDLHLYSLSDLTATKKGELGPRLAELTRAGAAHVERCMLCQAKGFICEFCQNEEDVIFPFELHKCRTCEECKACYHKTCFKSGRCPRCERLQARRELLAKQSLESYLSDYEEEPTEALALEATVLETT


What was measured:
[1] = biological target: T1, RUBICON (mouse (endogenous in BMDMs)); assay: co-IP; lysates of BMDMs treated with ACs, pre-treated with 3-MA (5 mM) and COL (1 μM); IP with a Rubicon antibody; Western blot
[2] = biological target: T1, RUBICON (mouse (endogenous in BMDMs)); assay: co-IP; lysates of BMDMs treated with ACs, pre-treated with 1 μM COL or not; IP with a Vps34 or a Rubicon antibody overnight, Dynabeads protein G; IP lysis buffer 10 mM Tris-HCl pH 7.5, 2 mM EDTA, 1% NP40, 150 mM NaCl; Western blot
[3] = biological target: VPS34 (mouse (endogenous in BMDMs)) (UniProt Q6PF93); assay: as above

Row | binding [2] | binding [3] | Molecule | binding [1]
1 | binds | – | VPS34 (from UniProt Q6PF93 1-887) (enzyme) | no binding (condition: BMDMs pre-treated with 3-MA (5 mM))
2 | – | binds | RUBICON (protein, UniProt Q80U62 1-956) MRPEGAGMDLGGGDGERLLEKSRREHWQLLGNLKTTVEGLVSANCPNVWSKYGGLERLCRDMQNILYHGLIHDQVCCRQADYWQFVKDIRWLSPHSALHVEKFISLHESDQSDTDSVSERAVAELWLQHSLQCHCLSAQLRPLLGDRQYIRKFYTETAFLLSDAHVTAMLQCLEAVEQNNPRLLAQIDASMFARKQESPLLVTKSQSLTALPGSTYTPPASYAQHSYFGSSSSLQSMPQSSHSSERRSTSFSLSGPSWQPQEDRECLSPAETQTTPAPLPSDSTLAQDSPLTAQEMSDSTLTSPLEASWVSSQNDSPSDVSEGPEYLAIGNPAPHGRTASCESHSSNGESSSSHLFSSSSSQKLESAASSLGDQEEGRQSQAGSVLRRSSFSEGQTAPVASGTKKSHIRSHSDTNIASRGAAGGPRNITIIVEDPIAEGGQYLCSGEGMFRRPSEGQSLISYLSEQDFGSCADLEKENAHFSISESLIAAIELMKCNMMSQCLEEEEVEEEDSDREIQELKQKIRLRRQQIRTKNLLPAYRETENGSFRVTSSSSQFSSRDSTQLSESGSAEDADDLEIQDADIRRSAVSNGKSSFSQNLSHCFLHSTSAEAVAMGLLKQFEGMQLPAASELEWLVPEHDAPQKLLPIPDSLPISPDDGQHADIYKLRIRVRGNLEWAPPRPQIIFNVHPAPTRKIAVAKQNYRCAGCGIRTDPDYIKRLRYCEYLGKYFCQCCHENAQMVVPSRILRKWDFSKYYVSNFSKDLLLKIWNDPLFNVQDINSALYRKVKLLNQVRLLRVQLYHMKNMFKTCRLAKELLDSFDVVPGHLTEDLHLYSLSDLTATKKGELGPRLAELTRAGAAHVERCMLCQAKGFICEFCQNEEDVIFPFELHKCRTCEECKACYHKTCFKSGRCPRCERLQARRELLAKQSLESYLSDYEEEPTEALALEATVLETT | –
